Measurements as given in the supplement of paper PMC7666118.
Some of the results follow.

By UniProt entry, the sequences of proteins in these tests, tags left out. Where a name states a change or a piece, a line headed by the entry shows the natural chain unless it says otherwise.
UniProt Q7L8W6: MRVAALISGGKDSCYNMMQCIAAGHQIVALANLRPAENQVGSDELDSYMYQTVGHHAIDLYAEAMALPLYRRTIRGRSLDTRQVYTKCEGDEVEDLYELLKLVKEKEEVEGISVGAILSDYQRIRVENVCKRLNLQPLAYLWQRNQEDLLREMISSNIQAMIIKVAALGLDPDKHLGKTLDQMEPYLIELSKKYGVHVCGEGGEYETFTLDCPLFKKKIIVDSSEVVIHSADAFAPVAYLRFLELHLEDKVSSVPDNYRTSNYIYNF
UniProt O75964: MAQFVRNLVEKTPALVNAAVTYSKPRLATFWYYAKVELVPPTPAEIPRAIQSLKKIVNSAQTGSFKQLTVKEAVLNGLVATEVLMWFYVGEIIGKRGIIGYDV
UniProt Q8WXE1: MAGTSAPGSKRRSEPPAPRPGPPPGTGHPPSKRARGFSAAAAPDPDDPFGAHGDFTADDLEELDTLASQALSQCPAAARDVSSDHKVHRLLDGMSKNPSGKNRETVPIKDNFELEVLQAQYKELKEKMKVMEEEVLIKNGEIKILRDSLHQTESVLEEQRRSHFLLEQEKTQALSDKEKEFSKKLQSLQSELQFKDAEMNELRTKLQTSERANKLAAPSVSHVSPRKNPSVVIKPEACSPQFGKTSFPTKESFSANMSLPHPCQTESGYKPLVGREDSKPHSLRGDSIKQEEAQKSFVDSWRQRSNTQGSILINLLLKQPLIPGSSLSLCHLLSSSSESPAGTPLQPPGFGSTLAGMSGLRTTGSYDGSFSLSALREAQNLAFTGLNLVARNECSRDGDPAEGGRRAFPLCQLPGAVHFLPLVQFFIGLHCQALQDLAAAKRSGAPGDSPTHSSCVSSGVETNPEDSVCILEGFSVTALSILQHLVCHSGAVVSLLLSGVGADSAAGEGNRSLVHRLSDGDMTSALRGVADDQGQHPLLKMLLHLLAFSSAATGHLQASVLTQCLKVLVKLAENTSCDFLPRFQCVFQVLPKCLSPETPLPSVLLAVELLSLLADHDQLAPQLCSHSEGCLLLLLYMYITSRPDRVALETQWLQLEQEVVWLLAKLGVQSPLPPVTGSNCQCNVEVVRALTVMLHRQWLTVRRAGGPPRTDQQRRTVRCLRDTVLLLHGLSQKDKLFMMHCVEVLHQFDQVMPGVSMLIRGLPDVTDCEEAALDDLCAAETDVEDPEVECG
UniProt Q9BSF4: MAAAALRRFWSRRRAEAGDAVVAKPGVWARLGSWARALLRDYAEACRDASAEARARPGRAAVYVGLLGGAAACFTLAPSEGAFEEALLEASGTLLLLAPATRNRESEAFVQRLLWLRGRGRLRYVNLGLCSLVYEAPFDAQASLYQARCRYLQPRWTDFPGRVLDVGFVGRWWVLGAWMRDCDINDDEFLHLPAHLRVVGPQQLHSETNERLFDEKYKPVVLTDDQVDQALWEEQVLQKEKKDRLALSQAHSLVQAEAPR
UniProt O14981: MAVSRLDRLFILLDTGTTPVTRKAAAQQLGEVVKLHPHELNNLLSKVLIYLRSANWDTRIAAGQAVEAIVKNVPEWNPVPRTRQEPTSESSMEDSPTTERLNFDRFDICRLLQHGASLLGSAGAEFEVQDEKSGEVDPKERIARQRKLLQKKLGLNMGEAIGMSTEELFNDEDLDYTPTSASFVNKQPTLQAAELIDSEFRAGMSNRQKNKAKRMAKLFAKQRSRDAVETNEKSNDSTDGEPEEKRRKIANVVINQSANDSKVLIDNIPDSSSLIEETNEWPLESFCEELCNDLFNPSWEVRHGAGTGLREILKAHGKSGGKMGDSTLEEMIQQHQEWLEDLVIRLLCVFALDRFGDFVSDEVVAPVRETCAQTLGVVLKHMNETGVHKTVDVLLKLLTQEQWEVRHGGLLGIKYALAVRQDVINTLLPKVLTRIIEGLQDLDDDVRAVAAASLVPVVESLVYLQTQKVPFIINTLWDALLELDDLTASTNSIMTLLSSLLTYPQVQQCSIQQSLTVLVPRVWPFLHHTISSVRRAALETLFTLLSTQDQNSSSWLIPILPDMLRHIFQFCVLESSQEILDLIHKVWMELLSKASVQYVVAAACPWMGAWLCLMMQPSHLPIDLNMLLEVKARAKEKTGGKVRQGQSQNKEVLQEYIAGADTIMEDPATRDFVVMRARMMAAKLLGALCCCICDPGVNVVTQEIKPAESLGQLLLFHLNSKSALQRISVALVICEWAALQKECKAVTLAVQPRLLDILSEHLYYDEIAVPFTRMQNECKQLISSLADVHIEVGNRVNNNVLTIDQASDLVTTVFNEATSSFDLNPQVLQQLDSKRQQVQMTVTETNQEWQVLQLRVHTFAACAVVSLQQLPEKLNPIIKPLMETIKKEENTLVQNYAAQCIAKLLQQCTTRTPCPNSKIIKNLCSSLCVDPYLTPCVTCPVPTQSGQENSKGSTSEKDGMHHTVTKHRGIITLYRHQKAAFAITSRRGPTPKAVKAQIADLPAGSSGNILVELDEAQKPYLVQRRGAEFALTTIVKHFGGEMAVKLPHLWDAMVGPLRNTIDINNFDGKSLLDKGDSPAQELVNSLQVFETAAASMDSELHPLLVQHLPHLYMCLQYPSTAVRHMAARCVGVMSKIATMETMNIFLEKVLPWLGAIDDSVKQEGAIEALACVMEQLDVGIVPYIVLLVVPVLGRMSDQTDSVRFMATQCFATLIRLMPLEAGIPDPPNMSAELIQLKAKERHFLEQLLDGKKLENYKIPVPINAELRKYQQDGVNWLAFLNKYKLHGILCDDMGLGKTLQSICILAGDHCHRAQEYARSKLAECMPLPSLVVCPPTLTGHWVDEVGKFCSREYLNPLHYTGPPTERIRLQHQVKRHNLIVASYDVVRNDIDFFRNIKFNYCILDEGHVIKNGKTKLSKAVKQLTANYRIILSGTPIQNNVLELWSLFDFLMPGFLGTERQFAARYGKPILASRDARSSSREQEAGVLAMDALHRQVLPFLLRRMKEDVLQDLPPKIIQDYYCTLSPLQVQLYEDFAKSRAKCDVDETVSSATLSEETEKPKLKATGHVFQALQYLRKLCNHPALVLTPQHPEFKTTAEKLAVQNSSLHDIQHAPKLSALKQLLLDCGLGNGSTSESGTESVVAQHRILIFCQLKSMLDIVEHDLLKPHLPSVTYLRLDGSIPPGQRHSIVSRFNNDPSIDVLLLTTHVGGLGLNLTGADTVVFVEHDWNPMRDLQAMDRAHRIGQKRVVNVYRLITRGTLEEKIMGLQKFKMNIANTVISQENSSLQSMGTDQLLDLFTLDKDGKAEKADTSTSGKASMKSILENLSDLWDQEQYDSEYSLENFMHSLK
UniProt Q9Y448: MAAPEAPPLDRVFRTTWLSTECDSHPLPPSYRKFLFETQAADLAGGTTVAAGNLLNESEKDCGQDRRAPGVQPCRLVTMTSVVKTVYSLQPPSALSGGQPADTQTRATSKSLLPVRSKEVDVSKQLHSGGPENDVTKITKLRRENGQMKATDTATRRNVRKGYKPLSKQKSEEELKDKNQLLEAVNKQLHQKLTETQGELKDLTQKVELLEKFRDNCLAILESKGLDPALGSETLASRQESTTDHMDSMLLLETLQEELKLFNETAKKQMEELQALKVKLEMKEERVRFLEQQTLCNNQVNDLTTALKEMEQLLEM
UniProt Q07812, whole entry: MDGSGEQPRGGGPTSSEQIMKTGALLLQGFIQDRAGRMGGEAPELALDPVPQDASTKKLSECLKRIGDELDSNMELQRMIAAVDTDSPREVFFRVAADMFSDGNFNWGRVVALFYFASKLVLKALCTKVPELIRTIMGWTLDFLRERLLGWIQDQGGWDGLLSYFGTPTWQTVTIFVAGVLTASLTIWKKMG
UniProt Q53FT3: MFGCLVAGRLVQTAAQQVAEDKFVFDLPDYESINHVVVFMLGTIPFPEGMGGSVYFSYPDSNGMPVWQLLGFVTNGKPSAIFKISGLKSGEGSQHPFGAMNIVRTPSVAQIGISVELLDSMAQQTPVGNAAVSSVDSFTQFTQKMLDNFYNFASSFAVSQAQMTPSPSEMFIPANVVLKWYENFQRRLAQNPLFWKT
UniProt P80723: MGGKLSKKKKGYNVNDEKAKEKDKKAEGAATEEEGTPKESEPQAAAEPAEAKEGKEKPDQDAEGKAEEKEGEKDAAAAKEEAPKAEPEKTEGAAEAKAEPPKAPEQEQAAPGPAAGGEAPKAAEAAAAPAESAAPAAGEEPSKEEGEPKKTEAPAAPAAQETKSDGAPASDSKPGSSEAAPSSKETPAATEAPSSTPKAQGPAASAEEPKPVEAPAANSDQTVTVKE
UniProt Q9NQ11: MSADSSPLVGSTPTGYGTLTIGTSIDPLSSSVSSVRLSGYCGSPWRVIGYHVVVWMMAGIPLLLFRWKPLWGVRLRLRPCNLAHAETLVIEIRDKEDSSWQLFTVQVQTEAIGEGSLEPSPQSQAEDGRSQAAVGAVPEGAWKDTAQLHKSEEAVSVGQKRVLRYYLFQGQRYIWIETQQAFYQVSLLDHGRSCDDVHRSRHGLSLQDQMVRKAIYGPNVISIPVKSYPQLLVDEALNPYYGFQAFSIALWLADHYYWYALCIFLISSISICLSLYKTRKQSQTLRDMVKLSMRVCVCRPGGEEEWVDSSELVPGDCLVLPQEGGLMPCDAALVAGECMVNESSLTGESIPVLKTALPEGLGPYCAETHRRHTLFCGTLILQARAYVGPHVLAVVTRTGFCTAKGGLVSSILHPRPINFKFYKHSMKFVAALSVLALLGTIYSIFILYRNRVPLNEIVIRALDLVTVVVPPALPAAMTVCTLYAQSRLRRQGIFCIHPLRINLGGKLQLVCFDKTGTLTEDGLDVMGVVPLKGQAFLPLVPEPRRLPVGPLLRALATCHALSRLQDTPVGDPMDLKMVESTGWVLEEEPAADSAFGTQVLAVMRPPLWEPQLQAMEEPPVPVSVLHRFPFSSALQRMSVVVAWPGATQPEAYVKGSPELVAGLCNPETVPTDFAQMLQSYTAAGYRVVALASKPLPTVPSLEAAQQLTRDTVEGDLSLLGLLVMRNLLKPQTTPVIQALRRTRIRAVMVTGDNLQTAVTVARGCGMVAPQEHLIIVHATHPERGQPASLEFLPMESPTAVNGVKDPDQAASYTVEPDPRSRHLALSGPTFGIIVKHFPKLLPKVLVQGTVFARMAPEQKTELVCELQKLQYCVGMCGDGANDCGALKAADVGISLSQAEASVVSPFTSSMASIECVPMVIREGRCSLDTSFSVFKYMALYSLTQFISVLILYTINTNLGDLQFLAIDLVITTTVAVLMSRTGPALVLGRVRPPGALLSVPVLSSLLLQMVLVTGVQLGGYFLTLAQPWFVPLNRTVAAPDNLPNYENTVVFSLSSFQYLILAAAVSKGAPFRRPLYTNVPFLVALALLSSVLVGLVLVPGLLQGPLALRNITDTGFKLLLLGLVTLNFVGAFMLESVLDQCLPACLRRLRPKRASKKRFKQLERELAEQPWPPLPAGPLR
UniProt Q9Y6A4: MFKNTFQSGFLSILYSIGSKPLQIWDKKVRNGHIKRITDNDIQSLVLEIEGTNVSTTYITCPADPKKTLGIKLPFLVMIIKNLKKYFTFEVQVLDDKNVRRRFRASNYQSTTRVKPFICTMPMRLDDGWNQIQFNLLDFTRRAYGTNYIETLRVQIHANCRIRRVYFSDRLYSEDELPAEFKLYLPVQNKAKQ

Compound: COc1ccc(Cn2ccc3cc(C)c(C(=O)NO)cc32)cc1
Assay: dose-dependent thermal stabilisation call (2D-TPP, DLPTP, 10% FDR) (binary (1 = stabilised)); higher = stabilised by the compound
Conditions: system: HL-60 intact cells; concentration range 0.04-10 µM
Experimental: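 2D thermal proteome profiling in intact HL-60 cells treated with BRD-3811 (0, 0.04, 0.29, 2, 10 uM) for 90 min at 37 C, then heated 3 min at one of 12 temperatures (42-63.9 C). Soluble protein was quantified by TMT10 MS. The value is the DLPTP call of the paper: dose-dependent thermal stabilisation over all temperatures at 10% FDR (F-test of a dose-response against a flat model); one experiment, one call per tested protein.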

Target | dose-dependent thermal stabilisation call
ATPBD4 (UniProt Q7L8W6) | inactive: 0
C16ORF62 (UniProt Q7Z3J2) | inactive: 0
C14ORF101 (UniProt Q9NX78) | inactive: 0
ATP2A2 (UniProt P16615) | inactive: 0
ATP6AP1 (UniProt Q15904) | inactive: 0
BPTF (UniProt Q12830) | inactive: 0
BAT2D1 (UniProt Q9Y520) | inactive: 0
BSCL2 (UniProt Q96G97) | inactive: 0
ATP8 (UniProt P03928) | inactive: 0
C14ORF104 (UniProt Q9NVR5) | inactive: 0
BIRC2 (UniProt Q13490) | inactive: 0
ATPAF1 (UniProt Q5TC12) | inactive: 0
C14ORF133 (UniProt Q9H9C1) | inactive: 0
ATP5C1 (UniProt P36542) | inactive: 0
C13ORF37 (UniProt Q08AG7) | inactive: 0
BEX1 (UniProt Q9HBH7) | inactive: 0
BRIP1 (UniProt Q9BX63) | inactive: 0
C14ORF156 (UniProt Q9GZT3) | active: 1
B2M (UniProt P61769) | inactive: 0
ATP2B1 (UniProt P20020) | inactive: 0
BLOC1S3 (UniProt Q6QNY0) | inactive: 0
B4GALT3 (UniProt O60512) | inactive: 0
BAZ1A (UniProt Q9NRL2) | inactive: 0
ATP5L (UniProt O75964) | inactive: 0

Target | dose-dependent thermal stabilisation call
ATRIP (UniProt Q8WXE1) | inactive: 0
BAD (UniProt Q92934) | inactive: 0
BCS1L (UniProt Q9Y276) | inactive: 0
ATP7A (UniProt Q04656) | inactive: 0
BTF3L4 (UniProt Q96K17) | inactive: 0
C19ORF52 (UniProt Q9BSF4) | inactive: 0
BTAF1 (UniProt O14981) | inactive: 0
C15ORF23 (UniProt Q9Y448) | inactive: 0
BAX (UniProt Q07812) | inactive: 0
BOP1 (UniProt Q14137) | inactive: 0
C19ORF59 (UniProt Q8IX19) | inactive: 0
BLMH (UniProt Q13867) | inactive: 0
C14ORF106 (UniProt Q6P0N0) | inactive: 0
BCKDK (UniProt O14874) | inactive: 0
ATRX (UniProt P46100) | inactive: 0
C16ORF13 (UniProt Q96S19) | inactive: 0
C12ORF45 (UniProt Q8N5I9) | inactive: 0
C10ORF104 (UniProt Q96DE5) | inactive: 0
BAZ1B (UniProt Q9UIG0) | inactive: 0
C11ORF73 (UniProt Q53FT3) | inactive: 0
C10ORF2 (UniProt Q96RR1) | inactive: 0
C19ORF38 (UniProt A8MVS5) | inactive: 0
ATP5J (UniProt P18859) | inactive: 0
BLVRA (UniProt P53004) | inactive: 0

Target | dose-dependent thermal stabilisation call
C18ORF55 (UniProt Q9BVV7) | inactive: 0
BOLA3 (UniProt Q53S33) | inactive: 0
BCL2L13 (UniProt Q9BXK5) | inactive: 0
BASP1 (UniProt P80723) | inactive: 0
C19ORF61 (UniProt Q9H0W8) | inactive: 0
C17ORF70 (UniProt Q0VG06) | inactive: 0
C19ORF2 (UniProt O94763) | inactive: 0
C16ORF14 (UniProt Q9BUT9) | inactive: 0
C19ORF28 (UniProt Q6NUT3) | inactive: 0
C10ORF88 (UniProt Q9H8K7) | inactive: 0
C17ORF80 (UniProt Q9BSJ5) | inactive: 0
ATP13A2 (UniProt Q9NQ11) | inactive: 0
BAK1 (UniProt Q16611) | inactive: 0
ATP6V1F (UniProt Q16864) | inactive: 0
BST2 (UniProt Q10589) | inactive: 0
B3GALT6 (UniProt Q96L58) | inactive: 0
C11ORF57 (UniProt Q6ZUT1) | inactive: 0
C19ORF42 (UniProt Q9BQ49) | inactive: 0
C16ORF80 (UniProt Q9Y6A4) | inactive: 0
UniProt B4DLE8_HUMAN | inactive: 0
BAG5 (UniProt Q9UL15) | inactive: 0
BPI (UniProt P17213) | inactive: 0
ATP5SL (UniProt Q9NW81) | inactive: 0

5 entries picked at random from the list so far, as already listed:
Target | dose-dependent thermal stabilisation call
C16ORF62 (UniProt Q7Z3J2) | inactive: 0
BEX1 (UniProt Q9HBH7) | inactive: 0
BOLA3 (UniProt Q53S33) | inactive: 0
ATRX (UniProt P46100) | inactive: 0
C14ORF156 (UniProt Q9GZT3) | active: 1
